Test results reported in the supplement of paper PMC10077471.
In all, about 1,900 compounds were measured (“excess over highest single agent (ExcessHSA) synergy score, 6x6 matrix”: median about -83, lowest 2% from about -370 on). The list shows a part of the results.

test system: NCI-H446; test: excess over highest single agent (ExcessHSA) synergy score, 6x6 matrix; higher = less synergy (more negative = stronger synergy); details: 72 h; CellTiter-Glo viability

| Structure (SMILES) | excess over highest single agent |
| --- | --- |
| COc1cc2ncnc(-n3nc(-c4ccccn4)nc3N)c2cc1OC + Cc1sc2c(c1C)C(c1ccc(Cl)cc1)=N[C@@H](CC(=O)OC(C)(C)C)c1nnc(C)n1-2 [NCGC00250412-19] | 44.6 |
| C[C@]12CCC3=C4CCC(=O)C=C4CC[C@H]3[C@@H]1CC[C@@]2(O)CC#N + Cc1sc2c(c1C)C(c1ccc(Cl)cc1)=N[C@@H](CC(=O)OC(C)(C)C)c1nnc(C)n1-2 [NCGC00250412-19] | 23.5 |
| O=C(O)[C@H](CC(=O)N1C[C@H]2CCCC[C@H]2C1)Cc1ccccc1 + Cc1sc2c(c1C)C(c1ccc(Cl)cc1)=N[C@@H](CC(=O)OC(C)(C)C)c1nnc(C)n1-2 [NCGC00250412-19] | -141 |
| c1coc(CNc2ncnc3[nH]cnc23)c1 + Cc1sc2c(c1C)C(c1ccc(Cl)cc1)=N[C@@H](CC(=O)OC(C)(C)C)c1nnc(C)n1-2 [NCGC00250412-19] | 40.4 |
| C[C@@H]1C[C@H]2[C@@H]3CCC4=CC(=O)C=C[C@]4(C)[C@@]3(Cl)[C@@H](O)C[C@]2(C)[C@@]1(OC(=O)c1ccco1)C(=O)CCl + Cc1sc2c(c1C)C(c1ccc(Cl)cc1)=N[C@@H](CC(=O)OC(C)(C)C)c1nnc(C)n1-2 [NCGC00250412-19] | 13.7 |
| CCCCc1ccc2[nH]c(NC(=O)OC)nc2c1 + Cc1sc2c(c1C)C(c1ccc(Cl)cc1)=N[C@@H](CC(=O)OC(C)(C)C)c1nnc(C)n1-2 [NCGC00250412-19] | -146 |
| COc1cc2ncnc(Nc3cccc(Cl)c3)c2cc1OC + Cc1sc2c(c1C)C(c1ccc(Cl)cc1)=N[C@@H](CC(=O)OC(C)(C)C)c1nnc(C)n1-2 [NCGC00250412-19] | -52.1 |
| O=c1oc2cc(O)ccc2s1 + Cc1sc2c(c1C)C(c1ccc(Cl)cc1)=N[C@@H](CC(=O)OC(C)(C)C)c1nnc(C)n1-2 [NCGC00250412-19] | -72.8 |
| CCn1c(-c2nonc2N)nc2c(C#CC(C)(C)O)ncc(OC[C@H]3CCCNC3)c21 + Cc1sc2c(c1C)C(c1ccc(Cl)cc1)=N[C@@H](CC(=O)OC(C)(C)C)c1nnc(C)n1-2 [NCGC00250412-19] | -162 |
| CCN(CC)CCOc1ccc(Nc2ncc3cc(-c4c(Cl)cccc4Cl)c(=O)n(C)c3n2)cc1 + Cc1sc2c(c1C)C(c1ccc(Cl)cc1)=N[C@@H](CC(=O)OC(C)(C)C)c1nnc(C)n1-2 [NCGC00250412-19] | -126 |
| CC=CC1=C(C(=O)O)N2C(=O)[C@@H](NC(=O)[C@H](N)c3ccc(O)cc3)[C@H]2SC1 + Cc1sc2c(c1C)C(c1ccc(Cl)cc1)=N[C@@H](CC(=O)OC(C)(C)C)c1nnc(C)n1-2 [NCGC00250412-19] | -64 |
| CN1C(=O)C(Cc2c[nH]c3ccccc23)NC1=S (stereo not given) + Cc1sc2c(c1C)C(c1ccc(Cl)cc1)=N[C@@H](CC(=O)OC(C)(C)C)c1nnc(C)n1-2 [NCGC00250412-19] | 69.4 |
| Cc1cc2c(s1)Nc1ccccc1N=C2N1CCN(C)CC1 + Cc1sc2c(c1C)C(c1ccc(Cl)cc1)=N[C@@H](CC(=O)OC(C)(C)C)c1nnc(C)n1-2 [NCGC00250412-19] | -70.9 |
| CC(=NNC(=S)N1CCC1)c1ccccn1 + Cc1sc2c(c1C)C(c1ccc(Cl)cc1)=N[C@@H](CC(=O)OC(C)(C)C)c1nnc(C)n1-2 [NCGC00250412-19] | -224 |
| CCOC(=O)[C@@H](N)CCC(=O)N[C@@H](CSCc1ccccc1)C(=O)N[C@@H](C(=O)OCC)c1ccccc1 + Cc1sc2c(c1C)C(c1ccc(Cl)cc1)=N[C@@H](CC(=O)OC(C)(C)C)c1nnc(C)n1-2 [NCGC00250412-19] | 15.4 |
| Cc1ccc(NC(=O)C2(c3ccc4c(c3)OC(F)(F)O4)CC2)nc1-c1cccc(C(=O)O)c1 + Cc1sc2c(c1C)C(c1ccc(Cl)cc1)=N[C@@H](CC(=O)OC(C)(C)C)c1nnc(C)n1-2 [NCGC00250412-19] | -81.1 |
| Cn1cc(/C=C2\C(=O)Nc3cccnc32)c2ccccc21 + Cc1sc2c(c1C)C(c1ccc(Cl)cc1)=N[C@@H](CC(=O)OC(C)(C)C)c1nnc(C)n1-2 [NCGC00250412-19] | -119 |
| CN(C)c1nc(Cc2ccc(NC(=O)c3ccc(C(F)(F)F)cc3)cc2)nc(N(C)C)c1CC(=O)O + Cc1sc2c(c1C)C(c1ccc(Cl)cc1)=N[C@@H](CC(=O)OC(C)(C)C)c1nnc(C)n1-2 [NCGC00250412-19] | -14.1 |
| CC(C)OC(=O)C(C)(C)Oc1ccc(C(=O)c2ccc(Cl)cc2)cc1 + Cc1sc2c(c1C)C(c1ccc(Cl)cc1)=N[C@@H](CC(=O)OC(C)(C)C)c1nnc(C)n1-2 [NCGC00250412-19] | 57.2 |
| Clc1ccc2c(N3CCN(CCCN4CCN(c5ccnc6cc(Cl)ccc56)CC4)CC3)ccnc2c1 + Cc1sc2c(c1C)C(c1ccc(Cl)cc1)=N[C@@H](CC(=O)OC(C)(C)C)c1nnc(C)n1-2 [NCGC00250412-19] | -90 |
| CC(=O)c1c(C)c2cnc(Nc3ccc(N4CCNCC4)cn3)nc2n(C2CCCC2)c1=O + Cc1sc2c(c1C)C(c1ccc(Cl)cc1)=N[C@@H](CC(=O)OC(C)(C)C)c1nnc(C)n1-2 [NCGC00250412-19] | -14.9 |
| CCN1C[C@H](C)n2c(c(O)c3c(=O)n(Cc4ccc(F)c(Cl)c4)nc(C(=O)NC)c32)C1=O + Cc1sc2c(c1C)C(c1ccc(Cl)cc1)=N[C@@H](CC(=O)OC(C)(C)C)c1nnc(C)n1-2 [NCGC00250412-19] | -166 |
| O=C(Nc1nnc(-c2ccco2)o1)c1cc(-c2ccccc2)nc2ccccc12 + Cc1sc2c(c1C)C(c1ccc(Cl)cc1)=N[C@@H](CC(=O)OC(C)(C)C)c1nnc(C)n1-2 [NCGC00250412-19] | 33.7 |
| CCCCN(CCCC)CC(O)c1cc(Cl)cc2c1-c1ccc(Cl)cc1/C2=C/c1ccc(Cl)cc1 (stereo not given) + Cc1sc2c(c1C)C(c1ccc(Cl)cc1)=N[C@@H](CC(=O)OC(C)(C)C)c1nnc(C)n1-2 [NCGC00250412-19] | -129 |
| Cc1cn(-c2cc(NC(=O)c3ccc(C)c(Nc4nccc(-c5cccnc5)n4)c3)cc(C(F)(F)F)c2)cn1 + Cc1sc2c(c1C)C(c1ccc(Cl)cc1)=N[C@@H](CC(=O)OC(C)(C)C)c1nnc(C)n1-2 [NCGC00250412-19] | -3.24 |

Two records picked at random from those above:

| Structure (SMILES) | excess over highest single agent |
| --- | --- |
| CCCCN(CCCC)CC(O)c1cc(Cl)cc2c1-c1ccc(Cl)cc1/C2=C/c1ccc(Cl)cc1 (stereo not given) + Cc1sc2c(c1C)C(c1ccc(Cl)cc1)=N[C@@H](CC(=O)OC(C)(C)C)c1nnc(C)n1-2 [NCGC00250412-19] | -129 |
| O=C(Nc1nnc(-c2ccco2)o1)c1cc(-c2ccccc2)nc2ccccc12 + Cc1sc2c(c1C)C(c1ccc(Cl)cc1)=N[C@@H](CC(=O)OC(C)(C)C)c1nnc(C)n1-2 [NCGC00250412-19] | 33.7 |
